In US20190077844A1:
These are yes or no findings as the source states them, for the method shown. Some binding calls cover weakened binding; strength is not graded here.

Sequences of proteins named here, by UniProt entry; tags and fusion partners are left off. A change or cut given only in a name is not applied to a line headed by its entry.
UniProt P51654: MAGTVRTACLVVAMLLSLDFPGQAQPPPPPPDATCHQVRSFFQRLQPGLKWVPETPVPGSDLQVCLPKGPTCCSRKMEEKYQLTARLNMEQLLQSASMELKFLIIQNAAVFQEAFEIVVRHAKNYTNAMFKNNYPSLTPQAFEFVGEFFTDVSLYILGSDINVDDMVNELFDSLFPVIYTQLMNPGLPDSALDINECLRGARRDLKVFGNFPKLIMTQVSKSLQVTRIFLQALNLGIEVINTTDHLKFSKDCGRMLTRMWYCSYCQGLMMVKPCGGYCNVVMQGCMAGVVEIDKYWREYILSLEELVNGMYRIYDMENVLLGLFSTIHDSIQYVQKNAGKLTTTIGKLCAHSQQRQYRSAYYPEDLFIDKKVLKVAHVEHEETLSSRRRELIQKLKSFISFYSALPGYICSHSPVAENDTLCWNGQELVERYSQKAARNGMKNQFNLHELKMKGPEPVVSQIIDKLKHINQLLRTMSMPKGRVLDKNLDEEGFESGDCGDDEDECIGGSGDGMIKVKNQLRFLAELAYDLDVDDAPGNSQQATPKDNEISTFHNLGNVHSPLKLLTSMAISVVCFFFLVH

Assays:
[1] = target: Recombinant human glypican-3 (aa 1-559), His-tagged (R&D Systems) (human) (UniProt P51654); assay: SPR (Biacore T100)
[2] = target: Human glypican-3 protein, construct not stated (recombinant GPC3 of the ELISA, selection target, human glypican-3-biotin) (human) (UniProt P51654); assay: PROfusion (mRNA display) selection under high stringency

B1: ADX_6077_F02 DG→SG mutant, alkylated (designed binder)
chain: VSDVPRDLEVVAATPTSLLISWSDDYHAHRYYRITYGETGGNSPVQEFTVPGEHVTATISGLKPGVDYTITVYAVTYSGEKAATDWSISINYRTPC
modifications: C-terminal cysteine alkylated
With B1 the binding [1] was “binds”.

B2: 6077_F02.dPEG (designed binder)
chain: MGVSDVPRDLEVVAATPTSLLISWSDDYHAHRYYRITYGETGGNSPVQEFTVPGEHVTATISGLKPGVDYTITVYAVTYDGEKAATDWSISINYRTPCHHHHHH
modifications: dPEG (site and size not stated)
With B2 the binding [1] was “binds”.

B3: 6077_F02-PEG3.4 (designed binder)
chain: MGVSDVPRDLEVVAATPTSLLISWSDDYHAHRYYRITYGETGGNSPVQEFTVPGEHVTATISGLKPGVDYTITVYAVTYDGEKAATDWSISINYRTPCHHHHHH
modifications: PEG3.4 (site not stated)
In the case of B3, the binding [1] is reported as “binds”.

B4: ADX_6077_F02 (designed binder)
chain: MGVSDVPRDLEVVAATPTSLLISWSDDYHAHRYYRITYGETGGNSPVQEFTVPGEHVTATISGLKPGVDYTITVYAVTYDGEKAATDWSISINYRTPCHHHHHH
B4 was tested, and the binding [2] was “binds”.
